Assay results as given in the supplement of paper PMC10849652.
The other results are listed elsewhere or left out.

The chains behind the UniProt entries cited, without tags or fusion partners. Where a name states a change or a piece, a line headed by the entry shows the natural chain unless it says otherwise.
UniProt Q16342: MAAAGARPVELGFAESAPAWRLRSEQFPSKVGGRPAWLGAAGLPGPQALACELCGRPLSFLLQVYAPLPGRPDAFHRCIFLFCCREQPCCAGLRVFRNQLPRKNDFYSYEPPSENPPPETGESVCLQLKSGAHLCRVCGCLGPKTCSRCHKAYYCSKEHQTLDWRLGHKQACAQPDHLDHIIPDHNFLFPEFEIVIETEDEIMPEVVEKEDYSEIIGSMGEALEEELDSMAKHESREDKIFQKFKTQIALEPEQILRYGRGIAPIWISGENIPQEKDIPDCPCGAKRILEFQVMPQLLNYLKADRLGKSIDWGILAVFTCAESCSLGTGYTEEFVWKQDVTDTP
UniProt P18669: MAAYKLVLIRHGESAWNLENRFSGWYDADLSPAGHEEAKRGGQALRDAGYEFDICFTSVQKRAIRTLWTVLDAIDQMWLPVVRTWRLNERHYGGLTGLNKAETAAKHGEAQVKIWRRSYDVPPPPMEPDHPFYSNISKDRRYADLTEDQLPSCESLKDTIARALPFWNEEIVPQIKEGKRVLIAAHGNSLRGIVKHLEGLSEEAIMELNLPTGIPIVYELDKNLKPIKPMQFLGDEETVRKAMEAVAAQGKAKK
UniProt P11498: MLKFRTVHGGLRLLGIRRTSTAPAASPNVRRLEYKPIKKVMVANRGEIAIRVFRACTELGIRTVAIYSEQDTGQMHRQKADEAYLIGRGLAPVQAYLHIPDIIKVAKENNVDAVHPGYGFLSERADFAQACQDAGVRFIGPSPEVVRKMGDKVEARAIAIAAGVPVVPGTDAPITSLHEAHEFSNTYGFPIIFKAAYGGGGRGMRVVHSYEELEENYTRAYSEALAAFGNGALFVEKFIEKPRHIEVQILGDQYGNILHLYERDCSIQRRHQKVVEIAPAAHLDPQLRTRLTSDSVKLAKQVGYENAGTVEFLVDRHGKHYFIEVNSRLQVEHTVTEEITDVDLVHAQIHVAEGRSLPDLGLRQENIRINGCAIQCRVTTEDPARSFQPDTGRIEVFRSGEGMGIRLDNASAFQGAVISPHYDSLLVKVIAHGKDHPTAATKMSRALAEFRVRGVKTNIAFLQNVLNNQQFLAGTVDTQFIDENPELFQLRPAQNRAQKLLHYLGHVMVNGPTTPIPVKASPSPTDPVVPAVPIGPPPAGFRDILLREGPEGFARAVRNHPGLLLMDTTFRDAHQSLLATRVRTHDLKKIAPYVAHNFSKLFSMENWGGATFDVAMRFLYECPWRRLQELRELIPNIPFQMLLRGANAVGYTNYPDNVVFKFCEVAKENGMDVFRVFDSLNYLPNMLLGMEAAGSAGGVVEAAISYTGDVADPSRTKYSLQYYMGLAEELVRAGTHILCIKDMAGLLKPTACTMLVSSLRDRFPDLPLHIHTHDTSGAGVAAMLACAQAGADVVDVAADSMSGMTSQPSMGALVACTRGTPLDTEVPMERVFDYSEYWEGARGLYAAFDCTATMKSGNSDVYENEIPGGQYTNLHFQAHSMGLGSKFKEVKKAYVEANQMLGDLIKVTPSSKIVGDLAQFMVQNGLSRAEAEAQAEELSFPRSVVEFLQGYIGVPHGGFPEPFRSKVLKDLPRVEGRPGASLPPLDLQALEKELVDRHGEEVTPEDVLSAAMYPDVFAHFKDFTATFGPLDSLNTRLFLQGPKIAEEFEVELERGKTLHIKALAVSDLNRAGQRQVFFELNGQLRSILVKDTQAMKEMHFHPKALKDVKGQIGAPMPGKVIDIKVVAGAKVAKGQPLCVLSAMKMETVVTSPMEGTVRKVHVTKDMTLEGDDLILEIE
UniProt Q15366, whole entry, looked up: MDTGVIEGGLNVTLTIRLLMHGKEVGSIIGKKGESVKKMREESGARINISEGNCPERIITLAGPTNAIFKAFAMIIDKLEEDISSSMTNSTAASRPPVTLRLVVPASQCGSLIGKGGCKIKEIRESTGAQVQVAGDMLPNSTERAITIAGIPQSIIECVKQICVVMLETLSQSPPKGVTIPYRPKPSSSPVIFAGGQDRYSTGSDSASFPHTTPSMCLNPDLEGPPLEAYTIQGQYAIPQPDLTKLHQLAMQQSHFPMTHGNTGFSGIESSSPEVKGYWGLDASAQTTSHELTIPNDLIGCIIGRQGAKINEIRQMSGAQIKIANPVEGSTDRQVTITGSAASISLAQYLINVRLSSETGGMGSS
UniProt Q9H4Z3: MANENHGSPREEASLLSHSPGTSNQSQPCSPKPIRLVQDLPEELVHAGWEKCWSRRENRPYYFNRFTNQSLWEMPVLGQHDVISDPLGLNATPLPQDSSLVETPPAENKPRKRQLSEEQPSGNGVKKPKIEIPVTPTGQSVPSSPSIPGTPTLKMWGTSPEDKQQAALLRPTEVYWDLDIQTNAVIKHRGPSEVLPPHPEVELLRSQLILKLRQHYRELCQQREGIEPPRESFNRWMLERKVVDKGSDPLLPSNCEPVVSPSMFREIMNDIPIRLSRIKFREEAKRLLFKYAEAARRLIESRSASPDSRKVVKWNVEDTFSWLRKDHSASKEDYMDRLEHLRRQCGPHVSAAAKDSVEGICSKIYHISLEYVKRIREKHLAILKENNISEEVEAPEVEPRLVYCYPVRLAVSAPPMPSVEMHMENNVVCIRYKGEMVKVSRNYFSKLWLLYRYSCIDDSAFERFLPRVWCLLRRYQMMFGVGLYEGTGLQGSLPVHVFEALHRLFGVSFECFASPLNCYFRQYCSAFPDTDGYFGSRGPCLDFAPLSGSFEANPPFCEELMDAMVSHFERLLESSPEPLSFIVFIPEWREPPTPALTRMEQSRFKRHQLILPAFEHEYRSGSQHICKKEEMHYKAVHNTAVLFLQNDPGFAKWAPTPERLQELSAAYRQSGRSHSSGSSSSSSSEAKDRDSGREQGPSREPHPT
UniProt P57721, whole entry, looked up: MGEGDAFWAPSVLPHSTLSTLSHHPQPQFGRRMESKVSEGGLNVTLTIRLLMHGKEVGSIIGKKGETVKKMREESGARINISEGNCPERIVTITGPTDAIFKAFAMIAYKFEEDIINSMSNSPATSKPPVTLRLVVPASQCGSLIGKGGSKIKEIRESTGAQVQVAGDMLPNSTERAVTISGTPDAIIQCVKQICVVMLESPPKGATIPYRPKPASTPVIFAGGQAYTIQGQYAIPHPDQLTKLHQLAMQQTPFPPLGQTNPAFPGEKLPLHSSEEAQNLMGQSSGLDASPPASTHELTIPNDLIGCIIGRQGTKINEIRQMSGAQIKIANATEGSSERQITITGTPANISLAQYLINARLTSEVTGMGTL
UniProt P30086: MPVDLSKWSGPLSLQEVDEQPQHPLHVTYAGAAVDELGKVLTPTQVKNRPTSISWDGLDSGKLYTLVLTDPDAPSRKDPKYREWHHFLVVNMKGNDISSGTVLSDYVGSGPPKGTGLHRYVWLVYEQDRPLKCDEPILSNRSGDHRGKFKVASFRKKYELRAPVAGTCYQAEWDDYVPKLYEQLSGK
UniProt Q9BUH6, whole entry, looked up: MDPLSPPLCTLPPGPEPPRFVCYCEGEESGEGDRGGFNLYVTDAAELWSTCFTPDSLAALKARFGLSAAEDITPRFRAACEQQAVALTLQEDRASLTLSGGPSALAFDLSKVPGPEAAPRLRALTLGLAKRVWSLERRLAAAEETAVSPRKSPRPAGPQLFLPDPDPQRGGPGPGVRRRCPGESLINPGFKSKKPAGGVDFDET
UniProt Q96HS1, whole entry, looked up: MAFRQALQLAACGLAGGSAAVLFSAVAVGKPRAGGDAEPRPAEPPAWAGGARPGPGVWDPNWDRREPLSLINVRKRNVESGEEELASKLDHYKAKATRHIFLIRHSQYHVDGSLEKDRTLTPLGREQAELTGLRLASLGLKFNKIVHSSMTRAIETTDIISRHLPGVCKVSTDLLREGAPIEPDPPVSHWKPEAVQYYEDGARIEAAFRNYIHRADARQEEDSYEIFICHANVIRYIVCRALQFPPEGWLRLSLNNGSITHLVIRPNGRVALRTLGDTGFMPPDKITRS
UniProt O96011: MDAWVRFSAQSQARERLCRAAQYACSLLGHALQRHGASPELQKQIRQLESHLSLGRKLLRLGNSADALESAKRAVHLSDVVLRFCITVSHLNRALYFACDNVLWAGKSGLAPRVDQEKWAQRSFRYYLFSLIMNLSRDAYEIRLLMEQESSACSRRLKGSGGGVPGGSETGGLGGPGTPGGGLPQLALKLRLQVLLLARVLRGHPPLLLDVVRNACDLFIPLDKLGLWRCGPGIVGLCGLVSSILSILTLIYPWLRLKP
UniProt P12955: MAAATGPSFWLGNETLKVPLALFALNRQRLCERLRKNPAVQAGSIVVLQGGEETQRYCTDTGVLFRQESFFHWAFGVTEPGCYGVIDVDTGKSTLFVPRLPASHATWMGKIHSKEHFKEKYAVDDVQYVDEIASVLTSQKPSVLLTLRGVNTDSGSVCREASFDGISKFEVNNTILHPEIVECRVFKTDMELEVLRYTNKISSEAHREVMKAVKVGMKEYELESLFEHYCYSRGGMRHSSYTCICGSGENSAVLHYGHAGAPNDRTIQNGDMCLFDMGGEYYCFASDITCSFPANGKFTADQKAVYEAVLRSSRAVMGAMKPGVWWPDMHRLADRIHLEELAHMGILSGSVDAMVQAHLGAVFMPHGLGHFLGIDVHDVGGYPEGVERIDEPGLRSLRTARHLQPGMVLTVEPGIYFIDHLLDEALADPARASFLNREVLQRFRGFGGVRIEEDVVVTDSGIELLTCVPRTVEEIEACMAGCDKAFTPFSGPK
UniProt Q92968: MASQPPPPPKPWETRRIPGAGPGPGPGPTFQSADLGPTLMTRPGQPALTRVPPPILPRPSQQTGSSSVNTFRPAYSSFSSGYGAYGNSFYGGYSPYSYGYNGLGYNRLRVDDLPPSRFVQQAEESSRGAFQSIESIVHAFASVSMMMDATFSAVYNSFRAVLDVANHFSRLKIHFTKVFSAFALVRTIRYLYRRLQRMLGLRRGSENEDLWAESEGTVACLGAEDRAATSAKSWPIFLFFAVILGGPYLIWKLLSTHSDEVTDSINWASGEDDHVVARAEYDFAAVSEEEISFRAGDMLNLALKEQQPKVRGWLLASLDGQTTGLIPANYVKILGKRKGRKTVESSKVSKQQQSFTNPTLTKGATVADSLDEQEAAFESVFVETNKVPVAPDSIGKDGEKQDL
UniProt P61457: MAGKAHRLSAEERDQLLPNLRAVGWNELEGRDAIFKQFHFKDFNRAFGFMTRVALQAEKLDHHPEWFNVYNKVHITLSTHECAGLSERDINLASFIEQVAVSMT
UniProt O95453: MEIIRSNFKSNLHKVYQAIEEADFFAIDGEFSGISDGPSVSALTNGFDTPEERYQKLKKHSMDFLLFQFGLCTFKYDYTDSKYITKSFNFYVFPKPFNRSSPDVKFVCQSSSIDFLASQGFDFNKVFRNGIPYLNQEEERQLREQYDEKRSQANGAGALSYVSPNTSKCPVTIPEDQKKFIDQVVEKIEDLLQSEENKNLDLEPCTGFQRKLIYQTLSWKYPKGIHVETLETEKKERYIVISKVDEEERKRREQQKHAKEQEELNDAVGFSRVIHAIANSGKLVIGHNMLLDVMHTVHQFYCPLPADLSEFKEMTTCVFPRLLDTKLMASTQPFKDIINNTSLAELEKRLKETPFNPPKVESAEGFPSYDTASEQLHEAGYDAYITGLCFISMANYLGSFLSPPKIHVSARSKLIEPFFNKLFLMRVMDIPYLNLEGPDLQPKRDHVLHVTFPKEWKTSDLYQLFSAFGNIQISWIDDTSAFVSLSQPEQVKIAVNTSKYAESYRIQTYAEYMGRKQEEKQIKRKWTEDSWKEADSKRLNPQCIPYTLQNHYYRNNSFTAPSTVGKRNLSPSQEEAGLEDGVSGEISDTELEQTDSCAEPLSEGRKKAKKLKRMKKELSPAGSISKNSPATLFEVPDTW
UniProt Q9UGN5: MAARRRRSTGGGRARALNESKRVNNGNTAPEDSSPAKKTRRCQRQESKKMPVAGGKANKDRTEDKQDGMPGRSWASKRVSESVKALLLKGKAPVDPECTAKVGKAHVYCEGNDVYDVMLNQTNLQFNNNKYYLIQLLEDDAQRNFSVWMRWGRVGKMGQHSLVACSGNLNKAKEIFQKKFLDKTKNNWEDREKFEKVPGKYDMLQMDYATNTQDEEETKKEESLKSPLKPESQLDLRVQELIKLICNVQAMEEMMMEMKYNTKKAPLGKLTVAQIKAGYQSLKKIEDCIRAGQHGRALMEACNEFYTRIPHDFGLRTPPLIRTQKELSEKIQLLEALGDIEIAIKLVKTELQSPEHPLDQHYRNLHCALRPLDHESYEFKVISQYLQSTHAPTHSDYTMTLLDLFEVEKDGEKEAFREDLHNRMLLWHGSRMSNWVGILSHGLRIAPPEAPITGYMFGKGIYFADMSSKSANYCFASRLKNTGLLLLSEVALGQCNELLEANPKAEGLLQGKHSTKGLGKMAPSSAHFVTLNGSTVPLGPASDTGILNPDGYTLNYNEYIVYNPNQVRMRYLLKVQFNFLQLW
UniProt Q9BUL8: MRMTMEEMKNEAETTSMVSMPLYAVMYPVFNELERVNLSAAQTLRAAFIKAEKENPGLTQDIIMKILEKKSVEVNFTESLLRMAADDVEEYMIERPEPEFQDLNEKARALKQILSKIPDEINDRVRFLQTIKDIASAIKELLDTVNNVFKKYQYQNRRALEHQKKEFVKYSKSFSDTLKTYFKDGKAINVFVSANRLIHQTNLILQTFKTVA

Each target was assayed with C=CC(=O)N1CCC[C@@H](n2nc(-c3ccc(Oc4ccccc4)cc3)c3c(N)ncnc32)C1 [ibrutinib] (assay: log2 fold change, soluble protein after heating vs DMSO (PISA); higher = thermal stabilisation; K562 lysate, 10 uM; active = over 0.2 and 3.5 SD of the protein, either way, in both replicates (recomputed)).
Outline: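 K562 pellets were dounce-homogenised in PBS pH 7.4 with 1 mM MgCl2, and the crude extract at 1 mg/mL protein was treated with 10 μM compound for 30 min. Aliquots were heated for 3 min across 48°C-58°C, pooled, and brought to 0.5% NP-40 at 4°C; soluble protein was the supernatant after 21,000xg for 90 min. Soluble protein was quantified by TMTpro 16plex LC-MS/MS with channel sums equalised, and reported as log2 fold change in thermal stability against DMSO controls, with values from duplicates.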

log2 fold change, inactive:
PDCD2 (UniProt Q16342) 0.062
PGAM1 (UniProt P18669) 0.021
PDCD6IP isoform 2 (UniProt Q8WUM4) -0.035
PC (UniProt P11498) 0.006
PCBP2 isoform 3 (UniProt Q15366) -0.007
PCIF1 (UniProt Q9H4Z3) 0.019
PFDN6 (UniProt O15212) 0.187
PCYT1A (UniProt P49585) 0.052
PCBP3 (UniProt P57721) -0.026
PDS5B (UniProt Q9NTI5) 0.015
PEBP1 (UniProt P30086) 0.063
PAXX (UniProt Q9BUH6) 0.002
PFDN5 (UniProt Q99471) 0.137
PGAM5 (UniProt Q96HS1) 0.046
PEX11B (UniProt O96011) -0.008
PFKL isoform 2 (UniProt P17858) 0.006
PEPD (UniProt P12955) 0.03
PEX13 (UniProt Q92968) 0.049
PCBD1 (UniProt P61457) 0.103
PARN (UniProt O95453) -0.014
PARP2 (UniProt Q9UGN5) 0.033
PELP1 (UniProt Q8IZL8) 0.016
PDCD10 (UniProt Q9BUL8) 0.001

Four consecutive records from above:
log2 fold change, inactive:
PEX11B (UniProt O96011) -0.008
PFKL isoform 2 (UniProt P17858) 0.006
PEPD (UniProt P12955) 0.03
PEX13 (UniProt Q92968) 0.049
